Results: US12673971B2, “Amyloid-β aggregation inhibitor, pharmaceutical composition foramyloid-β aggregation disease, and use application of same” (O-FORCE CO., LTD, priority 2020, dated 2026)

System: C57BL/6 mice
Assay: Movement speed and time in center region of cage (sociability check of the object recognition test)
Assay type: in vivo
Conditions: day 1 of ORT

Q: For GSGFK [Peptide 2], which movement speed (administration group Aβ25-35(+)/GSGFK(+) vs control groups, FIG. 5(A)) is on record?
A: no difference in movement speed between the groups

Q: What about the “percentage of time spent in a center region” value (administration group Aβ25-35(+)/GSGFK(+) vs negative control group, FIG. 5(B)) of the same substance?
A: negative control group to which Aβ25-35 was administered had a slightly higher percentage of time spent than the administration group
